From publication PMC3386289, “Isolation of Human Mitotic Protein Phosphatase Complexes: Identification of a Complex between Protein Phosphatase 1 and the RNA Helicase Ddx21” (PLoS ONE, 2012)
No constants are given. Whether binding was seen depends on the method and setting. For some of these results: Binding seen in cells or lysates may run through a third protein. Some entries that bind do so weakly or less than the wild type. For some of these results: Sequences can lack the tags named with a protein. Blank lines part the entries; values can stand above or below the molecule they belong to.

Protein sequences, listed by entry. Tags and fused reporters are not part of them.
UniProt P36873: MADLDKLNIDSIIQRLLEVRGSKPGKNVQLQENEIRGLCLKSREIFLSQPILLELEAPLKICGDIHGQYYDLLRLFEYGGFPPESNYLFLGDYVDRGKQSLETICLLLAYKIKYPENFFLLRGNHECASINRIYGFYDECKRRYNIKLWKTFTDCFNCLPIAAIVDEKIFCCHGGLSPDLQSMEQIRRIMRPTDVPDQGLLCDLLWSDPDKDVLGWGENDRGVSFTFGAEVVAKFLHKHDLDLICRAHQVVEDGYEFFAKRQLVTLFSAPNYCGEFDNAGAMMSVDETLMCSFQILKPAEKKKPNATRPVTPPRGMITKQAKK
UniProt Q96SB4: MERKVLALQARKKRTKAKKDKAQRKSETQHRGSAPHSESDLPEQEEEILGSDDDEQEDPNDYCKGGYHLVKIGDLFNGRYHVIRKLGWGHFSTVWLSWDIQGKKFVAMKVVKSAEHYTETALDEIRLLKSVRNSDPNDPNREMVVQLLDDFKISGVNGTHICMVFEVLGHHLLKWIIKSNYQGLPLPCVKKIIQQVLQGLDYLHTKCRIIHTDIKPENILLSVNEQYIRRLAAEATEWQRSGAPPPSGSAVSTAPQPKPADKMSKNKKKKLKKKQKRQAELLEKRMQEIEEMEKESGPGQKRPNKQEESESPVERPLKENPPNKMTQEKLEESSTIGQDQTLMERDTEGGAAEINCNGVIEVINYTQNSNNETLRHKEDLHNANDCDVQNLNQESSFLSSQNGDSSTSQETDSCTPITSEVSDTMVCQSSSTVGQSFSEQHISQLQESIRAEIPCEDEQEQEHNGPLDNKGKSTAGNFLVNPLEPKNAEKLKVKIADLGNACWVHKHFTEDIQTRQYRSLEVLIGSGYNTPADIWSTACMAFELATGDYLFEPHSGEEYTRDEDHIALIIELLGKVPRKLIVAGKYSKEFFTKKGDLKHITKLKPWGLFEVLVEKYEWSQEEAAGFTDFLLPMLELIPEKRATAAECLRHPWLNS

Legend:
[1] = target: PP1β (endogenous) (human (endogenous in HeLa)) (UniProt P62140); assay: co-IP; antibodies against human PP1 isoforms or control antibodies (PIS rabbit IgGs); diluted MAPs from the mitotic spindle and chromatin associated proteome of HeLa; western blot
[2] = target: PP1γ (endogenous) (human (endogenous in HeLa)) (UniProt P36873); assay: as above
[3] = target: T1, His6-Ddx21_(double) (human) (UniProt Q9NR30); assay: pull-down; 300 ng PP1 and 200 ng His6-Ddx21 in 25 mM Tris pH 7.5, 5% glycerol, 150 mM NaCl, 0.5% Igepal630, 10 mM imidazole, 4°C; Ni-NTA beads; wash 450 mM NaCl, 0.5% Tween-20 (γ: 500 mM NaCl, 0.75% Tween-20); western blot; both purified
T1 sequence: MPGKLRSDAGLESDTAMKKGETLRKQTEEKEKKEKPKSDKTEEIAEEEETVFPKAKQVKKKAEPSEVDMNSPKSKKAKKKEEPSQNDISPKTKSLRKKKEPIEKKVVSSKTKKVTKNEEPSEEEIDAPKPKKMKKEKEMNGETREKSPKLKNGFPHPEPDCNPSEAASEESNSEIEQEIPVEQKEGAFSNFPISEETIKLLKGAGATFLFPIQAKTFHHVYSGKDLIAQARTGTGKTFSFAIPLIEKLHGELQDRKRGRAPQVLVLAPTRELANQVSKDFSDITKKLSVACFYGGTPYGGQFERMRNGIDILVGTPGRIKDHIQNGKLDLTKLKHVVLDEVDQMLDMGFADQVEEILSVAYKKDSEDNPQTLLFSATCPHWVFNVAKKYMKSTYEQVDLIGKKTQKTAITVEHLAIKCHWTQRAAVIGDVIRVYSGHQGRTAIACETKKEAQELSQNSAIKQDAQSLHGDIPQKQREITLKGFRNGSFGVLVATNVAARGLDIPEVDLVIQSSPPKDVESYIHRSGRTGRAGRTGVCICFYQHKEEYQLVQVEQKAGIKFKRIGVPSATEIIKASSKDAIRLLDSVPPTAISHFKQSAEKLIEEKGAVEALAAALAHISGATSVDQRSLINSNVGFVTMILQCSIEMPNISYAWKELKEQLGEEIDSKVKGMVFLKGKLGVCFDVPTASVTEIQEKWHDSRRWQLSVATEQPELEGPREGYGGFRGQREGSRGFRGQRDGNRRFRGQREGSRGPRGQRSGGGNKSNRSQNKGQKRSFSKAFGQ

[4] = target: His6-Ddx21_(motif1) (human) (UniProt Q9NR30); assay: as above

binding [1]: no binding | binding [2]: binds
Molecule: Serine/Arginine Protein kinase SRPK1 (from UniProt Q96SB4 1-655) (enzyme)

binding [3]: binds weakly | binding [4]: no binding
B1: PP1β, bacterially expressed and purified (enzyme, human, UniProt P62140 1-327, looked up)
chain: MADGELNVDSLITRLLEVRGCRPGKIVQMTEAEVRGLCIKSREIFLSQPILLELEAPLKICGDIHGQYTDLLRLFEYGGFPPEANYLFLGDYVDRGKQSLETICLLLAYKIKYPENFFLLRGNHECASINRIYGFYDECKRRFNIKLWKTFTDCFNCLPIAAIVDEKIFCCHGGLSPDLQSMEQIRRIMRPTDVPDTGLLCDLLWSDPDKDVQGWGENDRGVSFTFGADVVSKFLNRHDLDLICRAHQVVEDGYEFFAKRQLVTLFSAPNYCGEFDNAGGMMSVDETLMCSFQILKPSEKKAKYQYGGLNSGRPVTPPRTANPPKKR
notes: Protein phosphatase 1 catalytic subunit, isoform β, human; also called protein phosphatase 1 beta
